# Read-outs that look alike come from different tables or passages of the source.
# Columns and labels:
# [1] = Description of odour of single fragrance substances (olfactory evaluation); conditions: for Description of odour: alcohol according to the invention
# [2] = structurally similar alcohols and known aldehydes; source Arctander / Bauer, Garbe, Surburg; cited from earlier work
SMILES,Description of odour [2],other results
CC(CO)C1CC=CCC1 (centres unmarked),,"odour ([1]; purified form (purity>95 wt. %)): flowery, rosy and fatty odour"
OCCCC1CC=CCC1 (centres unmarked) [3-cyclohexenyl-1-propanol],,"after-odour notes ([1]; after-odour): rosy, fruity, damascenone-like; Description of odour [1]: hydrocinnamic alcohol-like, mushroom-like, hay-like, cinnamon-like, balsamic, flowery; Description of odour ([1]; listed as Cyclohexenylpropanol): hydrocinnamic alcohol, mushroom- like, hay, balsamic, rosalva, rosy, phenylethyl alcohol, cinnamon, styrax, sweet, flowery"
O=C/C=C/c1ccccc1 [Cinnamaldehyde],"cinnamon, spicy, aromatic, clove, sweet, cassia",
OC/C=C/c1ccccc1 [Cinnamic alcohol],"sweet, balsamic, flowery, hyacinths, rose aspects",
O=CCCc1ccccc1 [Dihydrocinnamaldehyde],"hyacinths, earthy, warm, cherries, cinnamon, plums",
OCCCc1ccccc1 [Dihydrocinnamic alcohol],"sweet, balsamic, hyacinths, flowery, warm and mild",
